Values from PubChem BioAssay AID504791 (Drosophila RNAi Screening Center, 2011).
The deposit covers about 23,000 reagents; this is an unselected part of those that have a named target and a result. Over the whole deposit, 199 (0.86%) were called active. 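Plate-scaled ratios behind the calls are not deposited; printed light signals are raw; many rows marked increased or decreased are still called inactive.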 Reagents against one gene are numbered here. A plus sign joins genes that one reagent is predicted to hit. Further read-outs or replicates are left out here. Not given: the direction of the score.

- Test: 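Genes whose knock-down strengthens or weakens small-RNA reporter silencing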 (primary screen)
- Cells: Drosophila S2-derived reporter cells
- Reagent: long dsRNA against Drosophila genes, about 150-250 ng dsRNA per well (siRNA assay); about 80-120 ng (miRNA assay)
- Timing: about 5 days (siRNA assay); about 4 days (miRNA assay)
- Conditions: copper sulfate induction of reporters: 25 µM (siRNA assay); 200 mM stated (miRNA assay), 1-2 days before reading
- Read-out: 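Per-well ratio of Renilla over firefly light, expressed relative to that plate's average ratio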
- Active means: 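First-pass picks had plate-scaled ratios over 1.5 for the siRNA assay, over 1.6 for the miRNA assay, or under 0.6; two distinct dsRNAs had to score alike on retest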

| gene knocked down | reagent | stable siRNA reporter change | miRNA reporter change | stable assay Renilla, run 1 (luminescence) | call |
| --- | --- | --- | --- | --- | --- |
| CG9426 | 1 | – | – | 7052 | inactive |
| CG14306 (retired record) | 1 | – | – | 7406 | inactive |
| CG10801 | 1 | – | – | 6227 | inactive |
| CG5913 | 1 | – | – | 6627 | inactive |
| CG10628 | 1 | – | – | 6186 | inactive |
| Sfp26Ad | 1 | – | – | 4911 | inactive |
| CG4049 | 1 | – | – | 5404 | inactive |
| CG31835 + CG42585 | 1 | – | – | 5611 | inactive |
| CG31415 | 1 | – | – | 4184 | inactive |
| fz2 | 1 | – | – | 7247 | inactive |
| fz2 | 2 | – | – | 5240 | inactive |
| fz2 | 3 | – | – | 6966 | inactive |
| CG12773 | 1 | – | – | 8275 | inactive |
| rod | 1 | – | – | 7713 | inactive |
| CG30429 | 1 | – | – | 5386 | inactive |
| CG5708 | 1 | – | – | 7538 | inactive |
| CG10587 | 1 | – | – | 7412 | inactive |
| CG11594 | 1 | – | – | 7631 | inactive |
| Faf2 | 1 | – | – | 2.52e5 | inactive |
| Lsm10 | 1 | – | – | 5487 | inactive |
| Klp64D | 1 | – | – | 5147 | inactive |
| KCNQ | 1 | – | – | 5635 | inactive |
| KCNQ | 2 | – | – | 5628 | inactive |
| CG14073 | 1 | – | – | 6627 | inactive |
| CG33557 | 1 | – | – | 4859 | inactive |
| Dp | 1 | reporter ratio lowered past the hit cutoff | reporter ratio lowered past the hit cutoff | 5836 | active |
| Sardh | 1 | – | – | 12118 | inactive |
| Neos | 1 | – | – | 9658 | inactive |
| CG14227 | 1 | – | – | 3900 | inactive |
| Ctns | 1 | reporter ratio raised past the hit cutoff | – | 4960 | active |
| CG12438 | 1 | – | – | 7890 | inactive |
| CG8248 | 1 | – | – | 8454 | inactive |
| Etfb | 1 | – | – | 7921 | inactive |
| Obp50d | 1 | – | – | 6819 | inactive |
| Rbp | 1 | – | – | 8379 | inactive |
| Rbp | 2 | – | – | 6247 | inactive |
| Dus4 | 1 | – | – | 1.51e5 | inactive |
| Smurf | 1 | – | – | 5163 | inactive |
| Snp | 1 | – | – | 6020 | inactive |
| Snp | 2 | – | – | 10774 | inactive |
| SMC2 | 1 | – | – | 9043 | inactive |
| Or22c | 1 | – | – | 7850 | inactive |
| pasha | 1 | – | reporter ratio raised past the hit cutoff | 7894 | inactive |
| CG14692 | 1 | – | – | 5756 | inactive |
| Bin1 | 1 | – | – | 7334 | inactive |
| BBS4 | 1 | – | – | 3443 | inactive |
| CG4751 | 1 | – | – | 7962 | inactive |
| Cand1 | 1 | – | – | 21238 | inactive |
| CG11695 | 1 | – | – | 5639 | inactive |
| CG13544 | 1 | – | – | 5063 | inactive |
| wus | 1 | – | – | 6867 | inactive |
| stet | 1 | – | – | 6279 | inactive |
| stet | 2 | – | – | 6451 | inactive |
| Taf6 | 1 | reporter ratio lowered past the hit cutoff | – | 7396 | inactive |
| Br140 | 1 | – | – | 14451 | inactive |
| ATPsynC | 1 | – | – | 6916 | inactive |
| Scamp | 1 | – | – | 5219 | inactive |
| scramb2 | 1 | – | – | 6410 | inactive |
| Ugt36A1 + CG15418 | 1 | reporter ratio lowered past the hit cutoff | – | 3855 | inactive |
| CG32834 | 1 | – | – | 10994 | inactive |
| Der-2 | 1 | – | – | 7394 | inactive |
| Lcp2 | 1 | – | – | 7506 | inactive |
| CG33791 + CG18170 | 1 | – | – | 5550 | inactive |
| CG33791 + CG18170 | 2 | – | – | 5972 | inactive |
| ssp2 | 1 | – | – | 10075 | inactive |
| Hpd | 1 | – | – | 8746 | inactive |
| Nle | 1 | – | – | 7578 | inactive |
| Cep290 | 1 | – | – | 5108 | inactive |
| CG16868 | 1 | – | – | 9159 | inactive |
| Ebp | 1 | – | reporter ratio lowered past the hit cutoff | 8710 | inactive |
| Grip71 | 1 | – | – | 7611 | inactive |
| CG32249 | 1 | – | – | 3471 | inactive |
| CG32249 | 2 | – | – | 6011 | inactive |
| CG32249 | 3 | – | – | 5199 | inactive |
| Ns3 | 1 | – | – | 2855 | inactive |
| CG42445 | 1 | – | – | 7402 | inactive |
| CG9014 | 1 | – | – | 6962 | inactive |
| CG17049 (retired record) | 1 | – | – | 6183 | inactive |
| Cyp6a22 | 1 | – | – | 9006 | inactive |
| spz4 | 1 | – | – | 5884 | inactive |
| CG17359 | 1 | – | – | 6554 | inactive |
| dila | 1 | – | – | 6040 | inactive |
| CG13377 | 1 | – | – | 6135 | inactive |

An excerpt from the list above:
| gene knocked down | reagent | stable siRNA reporter change | miRNA reporter change | stable assay Renilla, run 1 (luminescence) | call |
| --- | --- | --- | --- | --- | --- |
| wus | 1 | – | – | 6867 | inactive |
| stet | 1 | – | – | 6279 | inactive |
| stet | 2 | – | – | 6451 | inactive |
| Taf6 | 1 | reporter ratio lowered past the hit cutoff | – | 7396 | inactive |
| Br140 | 1 | – | – | 14451 | inactive |
| ATPsynC | 1 | – | – | 6916 | inactive |
| Scamp | 1 | – | – | 5219 | inactive |
| scramb2 | 1 | – | – | 6410 | inactive |
